According to PubChem BioAssay AID504861 (Broad Institute, 2011):
Hit rate of the full screen: of about 1,200 compounds, about 290 (24%) were called active. About 3% were inconclusive and are not listed.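 The calls were made as follows: active = compounds lowering cell viability signal with fitted half-maximal concentration at most ten times their highest tested concentration; inconclusive = flat fit with 30 to 70% signal loss, or poor fit; inactive = the rest.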 The entries are a selection whose mix differs from that of the whole data set. Potency and affinity values are given separately.

Test: HEK293T cell viability reduction, dose response, cytotoxicity control for LMP1 NF-kB inhibitor project, CellTiter-Glo luminescence, cherry-picks (AID 504861)
Conditions: CellTiter-Glo ATP luminescence, 48 h; at 26 µM (top of the series)
In the case of `O=C(NC1=NCCS1)c1cc2ccccc2o1`, the activity change, negative = cytotoxicity is reported as inactive: -0.619%.
With `CCOc1ccc(N(C(C)C(=O)N2CCCCCC2)S(C)(=O)=O)cc1` (stereo not drawn) the activity change, negative = cytotoxicity was inactive: 3.86%.
With `O=C(N1CCOCC1)N1CCN(S(=O)(=O)c2ccc(Cl)cc2)C1` the activity change, negative = cytotoxicity was inactive: 9.71%.
In the case of `COC(=O)[C@@]1(C)[C@H]2C(=O)N(Cc3ccccc3)C(=O)[C@H]2[C@H]2CN=C(SCc3ccc(Cl)cc3)N21`, the activity change, negative = cytotoxicity is reported as inactive: -0.663%.
In the case of `O=[N+]([O-])c1ccc(Cl)c(S(=O)(=O)NCC2CCCO2)c1` (stereo not drawn), the activity change, negative = cytotoxicity is reported as inactive: 6.06%.
In the case of `O=C(Nc1ccc2c(c1)C(=O)OC2)c1ccc(C(F)(F)F)cc1`, the activity change, negative = cytotoxicity is reported as inactive: 0.862%.
With `CCOc1ccc(S(=O)(=O)N2CCC(C(=O)NCCc3ccc(S(N)(=O)=O)cc3)CC2)cc1` the activity change, negative = cytotoxicity was inactive: 9.59%.
For `CC1CN(c2cc(=O)n(-c3ccccc3)c(=O)[nH]2)CC(C)O1` (stereo not drawn), the activity change, negative = cytotoxicity was inactive: 5.49%.
With `Cc1ccc(CN2C(=O)CCC2C(=O)NCCCN2CCC(C)CC2)cc1` (stereo not drawn) the activity change, negative = cytotoxicity was inactive: 9.36%.
In the case of `CC1(C)CN(Cc2ccccc2)C(=O)[C@H]1CC(=O)Nc1ccccc1`, the activity change, negative = cytotoxicity is reported as inactive: 4.38%.
With `COc1ccc(S(=O)(=O)N2CCN(CC(=O)Nc3ccc(C)c(F)c3)CC2)cc1` the activity change, negative = cytotoxicity was inactive: 3.08%.
For `O=S(=O)(NC1c2cccc3cccc(c23)C1Sc1ncccn1)c1ccccc1` (stereo not drawn), the activity change, negative = cytotoxicity was inactive: 7.26%.
For `COc1ccc(N2Cc3cccc(C(=O)NC(C)CCc4ccco4)c3C2=O)cc1` (stereo not drawn), the activity change, negative = cytotoxicity was inactive: 3.59%.
With `Cc1cccc(Nc2nc(Cl)ncc2F)c1C` the activity change, negative = cytotoxicity was inactive: 10.1%.
With `COc1ccc(S(=O)(=O)NCCc2csc(-c3cccnc3)n2)cc1` the activity change, negative = cytotoxicity was inactive: 1.59%.
For `C=CCN1CCc2cc(O)c(O)cc2C(c2ccccc2)C1` (stereo not drawn), the activity change, negative = cytotoxicity was inactive: 7.91%.
In the case of `Cn1c(=O)c2c(ncn2CC(=O)Nc2cc(S(=O)(=O)N3CCCCC3)ccc2O)n(C)c1=O`, the activity change, negative = cytotoxicity is reported as inactive: 5.43%.
With `Cc1ccc(N2C(=O)c3ccccc3C2Nc2cccnc2)nc1` (stereo not drawn) the activity change, negative = cytotoxicity was inactive: 10.1%.
In the case of `COc1ccc(CCNC(=O)CSc2ccsc2[N+](=O)[O-])cc1OC`, the activity change, negative = cytotoxicity is reported as inactive: 2.93%.
In the case of `O=C(Cn1cc(CNC(=O)C2CCCCC2)nn1)Nc1cc(C(F)(F)F)ccc1Cl`, the activity change, negative = cytotoxicity is reported as inactive: 4.05%.
With `O=C(NCCOc1ccccc1)c1ccc2c(c1)OCO2` the activity change, negative = cytotoxicity was inactive: -2.16%.
With `COc1cc(OC)cc(-c2cc3nc(C)c(CCC(=O)O)c(C)n3n2)c1` the activity change, negative = cytotoxicity was inactive: 4.26%.
In the case of `O=C(CN1C(=O)c2ccccc2C1=O)NNC1=NS(=O)(=O)c2ccccc21`, the activity change, negative = cytotoxicity is reported as inactive: 6.87%.
In the case of `CN(Cc1ccc(F)cc1)C(=O)CN1CCN(S(=O)(=O)c2ccc3c(c2)OCCCO3)CC1`, the activity change, negative = cytotoxicity is reported as inactive: 9.73%.
For `CC1CC(C)CN(S(=O)(=O)c2ccc(NC(=O)CCN3C(=O)C4CC=CCC4C3=O)cc2)C1` (stereo not drawn), the activity change, negative = cytotoxicity was inactive: -5.26%.
For `COc1ccccc1C(=O)Nc1c[nH]c(=O)[nH]c1=O`, the activity change, negative = cytotoxicity was inactive: 6.18%.
In the case of `CCCSc1nc2cc(S(=O)(=O)N3CCOCC3)ccc2n1CC`, the activity change, negative = cytotoxicity is reported as inactive: 2.27%.
For `COC(=O)c1cccc(COC(=O)c2ccccc2NC(=O)c2ccco2)c1`, the activity change, negative = cytotoxicity was inactive: 17.6%.
For `Cc1nn(CCCC(=O)Nc2cccnc2Cl)c(C)c1[N+](=O)[O-]`, the activity change, negative = cytotoxicity was inactive: 1.66%.
In the case of `CC(CNC1CCCCC1)OC(=O)c1ccccc1` (stereo not drawn), the activity change, negative = cytotoxicity is reported as inactive: 12.2%.
With `COc1ccc2[nH]c3c(=O)n(CCCCC(=O)N4CCC(C(N)=O)CC4)c(=S)[nH]c3c2c1` the activity change, negative = cytotoxicity was inactive: 10.3%.
For `O=C(COC(=O)c1ccc(S(=O)(=O)NCc2ccco2)cc1)Nc1ccc(Cl)cn1`, the activity change, negative = cytotoxicity was inactive: 7.6%.
With `COc1ccc(NC(=O)C[C@H]2C(=O)N(CCc3ccccc3)C[C@@H]2c2ccc(OC)cc2)cc1` the activity change, negative = cytotoxicity was inactive: 4.1%.
For `COCCN1CSC(=S)N(Cc2ccco2)C1`, the activity change, negative = cytotoxicity was inactive: 1.64%.
With `Cc1ccc(C(=O)Nc2cccc(C(F)(F)F)c2)cc1Nc1ncnc2nc[nH]c12` the activity change, negative = cytotoxicity was inactive: 12.7%.
For `CC(CCc1ccco1)N(C)S(=O)(=O)c1csc(C(N)=O)c1` (stereo not drawn), the activity change, negative = cytotoxicity was inactive: 3.06%.
For `CCCC(C)NC(C)C(=O)NC1CCCC1` (stereo not drawn), the activity change, negative = cytotoxicity was inactive: 8.19%.
With `COC(=O)C(NS(=O)(=O)c1ccc(N2CCCC2=O)cc1)c1ccccc1` (stereo not drawn) the activity change, negative = cytotoxicity was inactive: 11.8%.
For `COC(=O)c1ccccc1NC(=O)CC(=O)Nc1ccccc1C(=O)OC`, the activity change, negative = cytotoxicity was inactive: 9.44%.
In the case of `CCc1nnc(NC(=O)c2ccc(S(=O)(=O)N3CCOCC3)cc2)s1`, the activity change, negative = cytotoxicity is reported as inactive: 5.76%.
For `Cc1ccc(NC(=O)NNS(=O)(=O)c2ccc(Br)cc2)cc1`, the activity change, negative = cytotoxicity was inactive: 13%.
For `CCOC(=O)CCSc1nc(N2CCOCC2)c2c(c1C#N)CC(C)(C)OC2`, the activity change, negative = cytotoxicity was inactive: 9.24%.
In the case of `C[C@@H]1CN([C@@H](C)CO)C(=O)c2cc(NC(=O)Nc3ccccc3)ccc2O[C@H]1CN(C)C(=O)Nc1cccc2ccccc12`, the activity change, negative = cytotoxicity is reported as inactive: 16.4%.
With `CCCCCC(=O)NC(=S)Nc1ccc(Br)cc1C` the activity change, negative = cytotoxicity was inactive: 5.46%.
In the case of `O=C(O)c1ccc(C=NN=C2c3ccccc3-c3ccccc32)cc1`, the activity change, negative = cytotoxicity is reported as inactive: -3.57%.
For `CSCCC(NC(=O)c1ccco1)C(=O)OCC(=O)Nc1ncc(Cl)c(C)c1Cl` (stereo not drawn), the activity change, negative = cytotoxicity was inactive: 0.613%.
For `Nc1cc2ccncc2c2ccccc12`, the activity change, negative = cytotoxicity was inactive: -17.4%.
In the case of `O=C(NCc1ccccc1Cl)C1CCCN1S(=O)(=O)c1ccc(F)cc1` (stereo not drawn), the activity change, negative = cytotoxicity is reported as inactive: 3.76%.
For `COc1ccc(S(=O)(=O)N2CCCCCC2)cc1C(=O)OCc1cccc(OC)c1OC`, the activity change, negative = cytotoxicity was inactive: -7.38%.
With `CSc1ccccc1OCc1cc(C(=O)N2CCC[C@H]2C(N)=O)no1` the activity change, negative = cytotoxicity was inactive: 8.42%.
For `COc1ccccc1N1CCN(CCCNC(=O)C2CCCN(c3ncnc4c3nc3n4CCCCC3)C2)CC1` (stereo not drawn), the activity change, negative = cytotoxicity was inactive: -8.21%.
With `CCOc1cc(C(=O)OC(C)C(=O)Nc2ncc(Cl)cc2Cl)ccc1OCC(=O)N1CCOCC1` (stereo not drawn) the activity change, negative = cytotoxicity was inactive: 21.9%.
With `CCSc1nnc(NC(=O)CCn2c(=O)oc3ccccc32)s1` the activity change, negative = cytotoxicity was inactive: 7.93%.
In the case of `COC(=O)c1cc2n(n1)CCN(Cc1ccccc1Cl)C2=O`, the activity change, negative = cytotoxicity is reported as inactive: 20.5%.
With `CC(C)[C@H](N[C@@H](C)c1ccccc1)c1c(O)ccc2ccccc12` the activity change, negative = cytotoxicity was inactive: 0.164%.
For `COC(=O)c1ccccc1NC(=O)CSc1nnnn1C`, the activity change, negative = cytotoxicity was inactive: 7.41%.
For `CN(C)CCCC1(c2ccc(F)cc2)OCc2cc(C#N)ccc21` (stereo not drawn), the activity change, negative = cytotoxicity was inactive: 6.16%.
With `Cc1ccc(C2=C/C(=C\c3cccnc3)C(=O)O2)cc1` the activity change, negative = cytotoxicity was inactive: 6.69%.
